Data from article PMC8597092.
No constants are given. Whether binding was seen depends on the method and setting. In cells and extracts the contact can be indirect. Some binding calls cover weakened binding; strength is not graded here.

Sequences of proteins named here, by UniProt entry; tags and fusion partners are left off.
UniProt Q05397: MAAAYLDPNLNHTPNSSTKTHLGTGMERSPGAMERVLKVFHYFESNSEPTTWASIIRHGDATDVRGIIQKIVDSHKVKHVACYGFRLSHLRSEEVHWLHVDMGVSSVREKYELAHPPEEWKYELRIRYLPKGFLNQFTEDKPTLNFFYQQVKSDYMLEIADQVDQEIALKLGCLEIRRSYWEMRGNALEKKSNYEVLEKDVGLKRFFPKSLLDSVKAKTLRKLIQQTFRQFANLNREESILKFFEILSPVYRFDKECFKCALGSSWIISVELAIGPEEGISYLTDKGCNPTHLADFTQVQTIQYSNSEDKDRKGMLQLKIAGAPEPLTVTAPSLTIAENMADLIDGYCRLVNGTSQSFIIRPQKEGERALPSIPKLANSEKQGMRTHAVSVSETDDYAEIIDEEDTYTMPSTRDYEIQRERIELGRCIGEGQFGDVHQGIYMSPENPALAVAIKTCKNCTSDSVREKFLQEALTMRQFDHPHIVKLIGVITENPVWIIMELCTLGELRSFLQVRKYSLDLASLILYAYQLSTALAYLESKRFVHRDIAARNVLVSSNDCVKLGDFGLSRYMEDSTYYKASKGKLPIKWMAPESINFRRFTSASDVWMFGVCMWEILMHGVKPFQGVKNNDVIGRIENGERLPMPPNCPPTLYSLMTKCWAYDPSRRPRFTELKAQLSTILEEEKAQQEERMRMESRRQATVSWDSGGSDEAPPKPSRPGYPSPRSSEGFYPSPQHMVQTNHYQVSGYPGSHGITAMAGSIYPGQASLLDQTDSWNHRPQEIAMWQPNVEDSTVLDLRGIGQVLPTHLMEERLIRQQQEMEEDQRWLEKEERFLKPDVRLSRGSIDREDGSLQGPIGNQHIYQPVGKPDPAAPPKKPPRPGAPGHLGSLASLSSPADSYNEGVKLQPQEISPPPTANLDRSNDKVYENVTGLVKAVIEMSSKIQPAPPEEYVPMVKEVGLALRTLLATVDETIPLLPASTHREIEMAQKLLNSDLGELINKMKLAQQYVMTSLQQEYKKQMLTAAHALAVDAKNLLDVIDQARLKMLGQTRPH
UniProt Q13547: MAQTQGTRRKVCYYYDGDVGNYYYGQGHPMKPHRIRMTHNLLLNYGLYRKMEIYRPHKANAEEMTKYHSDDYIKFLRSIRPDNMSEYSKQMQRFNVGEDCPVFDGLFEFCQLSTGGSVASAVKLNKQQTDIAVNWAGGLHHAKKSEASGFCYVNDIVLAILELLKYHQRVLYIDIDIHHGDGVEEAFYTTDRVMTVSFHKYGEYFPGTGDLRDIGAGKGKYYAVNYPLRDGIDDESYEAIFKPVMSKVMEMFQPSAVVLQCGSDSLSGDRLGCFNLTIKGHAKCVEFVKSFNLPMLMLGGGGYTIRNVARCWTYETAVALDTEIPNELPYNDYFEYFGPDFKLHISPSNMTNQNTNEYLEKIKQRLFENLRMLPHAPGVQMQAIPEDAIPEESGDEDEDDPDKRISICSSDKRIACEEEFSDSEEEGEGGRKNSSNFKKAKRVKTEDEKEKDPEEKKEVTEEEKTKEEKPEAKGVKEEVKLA
UniProt Q92769: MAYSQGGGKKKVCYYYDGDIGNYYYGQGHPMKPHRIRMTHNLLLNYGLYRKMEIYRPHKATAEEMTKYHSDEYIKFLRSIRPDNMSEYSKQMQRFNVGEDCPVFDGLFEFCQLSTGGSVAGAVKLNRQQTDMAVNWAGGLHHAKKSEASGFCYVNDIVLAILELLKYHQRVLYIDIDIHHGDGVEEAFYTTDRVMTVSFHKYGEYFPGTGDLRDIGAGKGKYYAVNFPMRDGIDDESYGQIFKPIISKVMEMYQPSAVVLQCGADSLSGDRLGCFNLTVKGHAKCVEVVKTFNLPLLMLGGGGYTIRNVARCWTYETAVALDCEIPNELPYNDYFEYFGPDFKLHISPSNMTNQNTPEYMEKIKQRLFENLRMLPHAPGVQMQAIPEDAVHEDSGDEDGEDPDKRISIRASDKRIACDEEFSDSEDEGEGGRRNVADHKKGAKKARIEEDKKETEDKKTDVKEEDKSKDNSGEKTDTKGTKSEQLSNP

What was measured:
[1] = target: focal adhesion kinase (FAK) (human (endogenous in HepG2 and Huh7)) (UniProt Q05397); experiment: co-IP; 500 μg nuclear extract of HepG2 and Huh7 cells, antibody against FAK on protein A/G PLUS-Agarose beads, 2 h at 4 °C, washed with TBS; blotted for FAK or pTyr397FAK, HDAC1 and HDAC2; non-treated cells; Mock: beads alone; cells silenced for FAK as a further sample
[2] = target: focal adhesion kinase (FAK) (human (endogenous in HepG2 and Huh7)) (UniProt Q05397); experiment: co-IP; as a2, nuclear extracts of HepG2 and Huh7 cells treated with TAE226 > SOR (TAE226 followed by Sorafenib)

| binding [1] | Substance | binding [2] |
| --- | --- | --- |
| binds | HDAC1 (from UniProt Q13547 1-482) | no binding (condition: cells treated with TAE226 > SOR) |
| binds | HDAC2 (from UniProt Q92769 1-488) | no binding (condition: cells treated with TAE226 > SOR) |
